Experimental data taken from publication PMC10155312.
No constants are given. Whether binding was seen depends on the method and setting. In cells and extracts the contact can be indirect. Some binding calls cover weakened binding; strength is not graded here.

Amino acid sequences for entries named in this document (tags omitted).
UniProt Q9DCJ1: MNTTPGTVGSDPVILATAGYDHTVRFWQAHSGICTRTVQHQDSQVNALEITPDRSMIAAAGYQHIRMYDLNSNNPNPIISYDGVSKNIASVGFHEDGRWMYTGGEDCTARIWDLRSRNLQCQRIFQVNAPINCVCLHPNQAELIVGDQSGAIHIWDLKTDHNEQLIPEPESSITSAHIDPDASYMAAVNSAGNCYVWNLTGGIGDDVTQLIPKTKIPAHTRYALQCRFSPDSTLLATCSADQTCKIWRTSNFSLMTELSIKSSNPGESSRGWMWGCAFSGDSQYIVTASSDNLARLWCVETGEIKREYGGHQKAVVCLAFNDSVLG

Target: GβL (mouse (endogenous in mouse liver)) (UniProt Q9DCJ1)
Test: co-IP; lysate of fresh liver tissue of 2-month-old wild-type mice (1500 ug total protein, Pierce IP Lysis Buffer with protease inhibitors); antibodies against Ufl1, Ufbp1 or GβL, protein A/G plus agarose beads overnight at 4 °C; six washes in lysis buffer; western blot; IgG as negative control

Row | binding | Binder
1 | binds | Ufm1-specific ligase 1 (enzyme, UniProt Q8CCJ3 1-793) MADAWEEIRRLAADFQRAQFAESTQRLSERNCIEIVNKLISQKQLEVVHTLDGKEYITPAQISKEMRDELHVRGGRVNIVDLQQVINVDLTHIESRVSDIIKSEKHVQMVLGQLIDENYLDQLSEEVNDKLQESGQVTVSELCKAYDLPGDFLTQALTQRLGRIINGHLDLDNRGVIFTEAFVARHKARIRGLFSAITRPTPVNSLVSKYGFQEQLLYSVLEDLVSTGRLRGTVVGGRQDKAVFVPDIYSRTQSTWVDSFFRQNGYLEFDALSRLGIPDAVNYIKKRYKNTQLLFLKATCVGQGLVDQVEASVEEAISSGTWVDISPLLPSSLSVEDAAMLLQQVMRPFGKLASAIVFSDTVVVSEKFITDCTGLFSERMHQKAEKEMKNNPVHLITEEDLKQISILESVNTSKKDKKDERRKKATEGSGSVRGGGGGNAREYKIKKTKKKGRKDEDSDDESQSSHGGKKKPDITFMFQDEIEDCLRKHIQDAPEEFISELAEYLIKPLNKMYLEVVRSVFMSSTSASGTGRKRTIKDLQEEVSNLYNNIRLFEKGMKYFADDTQTALTKHLLKTVCTDITNLMFNFLASDFLMAVEEPAAITSDIRKKILSKLTEETKVALTKLHNSLNEKSIEDFLSCLDSATEACDIMVKKGDKKRERQILFQHRQALCEQLKVTEDPALILHLTAVLLFQLSTHSMLHAPGRCVPQIIAFLHSKIPEDQHTLLVKYQGLVVKQLVSQNKKTGQGEDPSSDELDKEQHDVTNATRKELQELSLSIKDLVLKSRKSSVTEE
2 | binds | Ufm1-binding protein 1 (protein, UniProt Q80WW9 1-315) MVGPWVYLVAAVLLIGLILFLTRSRGRAAAADGEPLHNEEERAGAGQVGRSLPQESEEQRTGSRPRRRRDLGSRLQAQRRAQRVAWEDGDENVGQTVIPAQEEEGIEKPAEVHPTGKIGAKKLRKLEEKQARKAQREAEEAEREERKRLESQREAEWKKEEERLRLKEEQKEEEERKAQEEQARREHEEYLKLKEAFVVEEEGVSETMTEEQSHSFLTEFINYIKKSKVVLLEDLAFQMGLRTQDAINRIQDLLTEGTLTGVIDDRGKFIYITPEELAAVANFIRQRGRVSITELAQASNSLISWGQDLPAQASA
